Reference: article PMC9260856
No constants are given. Whether binding was seen depends on the method and setting. Binding seen in cells or lysates may run through a third protein. These calls come from enrichment with a bait or labelling near it, and not all partners need be listed. Where a sequence is shown, tags or fusion partners need not be part of it.

T1: StrepII-FLAG-tagged ZXDA (SF-ZXDA), inducibly expressed in HeLa cells (human) (UniProt P98168)
T1 sequence: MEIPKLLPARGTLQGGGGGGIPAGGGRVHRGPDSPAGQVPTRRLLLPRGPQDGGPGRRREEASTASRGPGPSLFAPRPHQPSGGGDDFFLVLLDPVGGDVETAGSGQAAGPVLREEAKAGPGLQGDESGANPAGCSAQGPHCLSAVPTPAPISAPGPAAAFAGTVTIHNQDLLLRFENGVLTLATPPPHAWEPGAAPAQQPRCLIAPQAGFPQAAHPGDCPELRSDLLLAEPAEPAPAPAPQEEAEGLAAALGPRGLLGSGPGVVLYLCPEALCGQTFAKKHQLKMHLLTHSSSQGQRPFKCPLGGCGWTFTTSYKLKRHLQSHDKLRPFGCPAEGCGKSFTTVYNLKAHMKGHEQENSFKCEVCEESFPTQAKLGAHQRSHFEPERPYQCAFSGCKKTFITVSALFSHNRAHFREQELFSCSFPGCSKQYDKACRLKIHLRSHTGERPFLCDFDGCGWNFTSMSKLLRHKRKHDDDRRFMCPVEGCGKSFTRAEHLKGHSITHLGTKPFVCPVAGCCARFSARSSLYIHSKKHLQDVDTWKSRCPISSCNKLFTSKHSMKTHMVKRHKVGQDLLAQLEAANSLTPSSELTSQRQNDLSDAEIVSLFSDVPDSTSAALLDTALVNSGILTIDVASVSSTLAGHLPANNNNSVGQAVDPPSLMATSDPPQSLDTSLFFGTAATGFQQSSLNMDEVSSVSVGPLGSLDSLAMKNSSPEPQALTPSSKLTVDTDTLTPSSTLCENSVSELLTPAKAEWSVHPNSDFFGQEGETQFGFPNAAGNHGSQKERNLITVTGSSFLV

T2: StrepII-FLAG-tagged FBXO38 (SF-FBXO38), expressed in HeLa cells (human) (UniProt Q6PIJ6)
T2 sequence: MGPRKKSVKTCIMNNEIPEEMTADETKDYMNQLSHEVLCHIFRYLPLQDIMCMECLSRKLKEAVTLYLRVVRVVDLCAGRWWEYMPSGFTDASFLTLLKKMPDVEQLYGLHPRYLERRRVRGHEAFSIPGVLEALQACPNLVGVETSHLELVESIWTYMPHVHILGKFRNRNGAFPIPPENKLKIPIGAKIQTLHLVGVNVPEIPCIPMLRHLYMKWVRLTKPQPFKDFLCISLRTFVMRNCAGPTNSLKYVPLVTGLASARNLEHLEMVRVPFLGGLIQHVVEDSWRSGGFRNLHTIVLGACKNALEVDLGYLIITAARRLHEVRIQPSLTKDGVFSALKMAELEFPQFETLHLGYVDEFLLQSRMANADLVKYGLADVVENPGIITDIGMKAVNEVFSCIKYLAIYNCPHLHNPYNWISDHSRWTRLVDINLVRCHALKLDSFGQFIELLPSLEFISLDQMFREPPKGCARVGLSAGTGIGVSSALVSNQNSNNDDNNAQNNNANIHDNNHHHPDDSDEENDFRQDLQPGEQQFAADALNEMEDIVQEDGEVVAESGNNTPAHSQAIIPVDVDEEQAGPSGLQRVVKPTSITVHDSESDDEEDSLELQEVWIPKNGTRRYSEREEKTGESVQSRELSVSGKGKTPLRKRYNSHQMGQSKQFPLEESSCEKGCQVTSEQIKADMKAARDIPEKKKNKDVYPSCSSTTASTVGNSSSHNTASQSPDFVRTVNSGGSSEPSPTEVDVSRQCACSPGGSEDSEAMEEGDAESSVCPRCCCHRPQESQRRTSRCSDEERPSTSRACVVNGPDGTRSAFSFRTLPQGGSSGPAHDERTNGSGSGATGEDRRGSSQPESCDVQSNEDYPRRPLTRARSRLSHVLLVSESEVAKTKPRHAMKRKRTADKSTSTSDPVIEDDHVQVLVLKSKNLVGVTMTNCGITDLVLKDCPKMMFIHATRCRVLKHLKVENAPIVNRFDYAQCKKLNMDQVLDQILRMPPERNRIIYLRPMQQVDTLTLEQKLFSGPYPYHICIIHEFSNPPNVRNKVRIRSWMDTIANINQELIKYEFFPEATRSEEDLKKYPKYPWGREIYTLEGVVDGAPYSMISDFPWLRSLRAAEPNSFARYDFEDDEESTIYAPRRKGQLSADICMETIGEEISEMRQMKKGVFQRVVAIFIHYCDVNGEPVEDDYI

T3: StrepII-FLAG-tagged wild-type FBXO38 (SF-FBXO38 WT), transfected in HEK293T cells (human) (UniProt Q6PIJ6)
T3 sequence: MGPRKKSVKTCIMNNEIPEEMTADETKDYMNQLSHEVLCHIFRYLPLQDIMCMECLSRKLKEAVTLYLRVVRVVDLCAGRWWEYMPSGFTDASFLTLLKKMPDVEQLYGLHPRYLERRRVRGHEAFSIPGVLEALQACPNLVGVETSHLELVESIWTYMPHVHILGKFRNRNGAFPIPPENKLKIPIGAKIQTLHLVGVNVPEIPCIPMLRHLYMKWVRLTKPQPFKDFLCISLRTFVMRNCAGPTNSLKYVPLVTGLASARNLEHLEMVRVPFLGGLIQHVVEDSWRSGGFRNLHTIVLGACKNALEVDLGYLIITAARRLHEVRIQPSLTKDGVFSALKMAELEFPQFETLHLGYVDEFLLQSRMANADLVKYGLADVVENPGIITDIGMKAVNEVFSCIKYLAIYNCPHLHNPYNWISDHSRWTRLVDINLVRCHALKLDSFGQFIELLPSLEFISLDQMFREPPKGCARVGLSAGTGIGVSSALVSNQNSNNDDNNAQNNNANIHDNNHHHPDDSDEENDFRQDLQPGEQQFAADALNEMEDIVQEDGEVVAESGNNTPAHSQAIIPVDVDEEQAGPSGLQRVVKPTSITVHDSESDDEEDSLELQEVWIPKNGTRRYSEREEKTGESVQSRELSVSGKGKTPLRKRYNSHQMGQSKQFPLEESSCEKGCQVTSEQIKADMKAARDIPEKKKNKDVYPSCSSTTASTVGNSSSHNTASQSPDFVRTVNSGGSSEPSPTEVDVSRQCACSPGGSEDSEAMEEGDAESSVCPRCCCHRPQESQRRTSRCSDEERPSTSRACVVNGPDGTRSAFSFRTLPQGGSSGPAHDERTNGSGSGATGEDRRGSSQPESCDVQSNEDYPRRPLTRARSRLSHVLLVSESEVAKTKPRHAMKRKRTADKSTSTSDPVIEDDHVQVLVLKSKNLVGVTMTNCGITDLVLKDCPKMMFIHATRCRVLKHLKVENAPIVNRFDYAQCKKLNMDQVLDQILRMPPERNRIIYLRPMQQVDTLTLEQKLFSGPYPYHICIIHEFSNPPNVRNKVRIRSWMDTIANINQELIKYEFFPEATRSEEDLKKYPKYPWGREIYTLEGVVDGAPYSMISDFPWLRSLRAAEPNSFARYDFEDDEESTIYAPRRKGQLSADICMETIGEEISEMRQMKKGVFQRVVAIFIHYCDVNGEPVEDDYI


Assays:
[1] = molecular target: T1, StrepII-FLAG-tagged ZXDA (SF-ZXDA), inducibly expressed in HeLa cells (human); assay: affinity purification with mass spectrometry; SF-ZXDA affinity-purified from stably transfected HeLa cells with inducible expression, whole-cell lysates prepared with turbonuclease, LC-MS/MS
[2] = molecular target: T2, StrepII-FLAG-tagged FBXO38 (SF-FBXO38), expressed in HeLa cells (human); assay: affinity purification with mass spectrometry; SF-FBXO38 affinity-purified from HeLa cells, LC-MS/MS; parental HeLa cells as negative control
[3] = molecular target: T3, StrepII-FLAG-tagged wild-type FBXO38 (SF-FBXO38 WT), transfected in HEK293T cells (human); assay: affinity purification with mass spectrometry; tandem affinity purification from HEK293T cells co-transfected with SF-tagged and HA-tagged proteins: Strep-Tactin, then HA immunoprecipitation, elution with 3M NaSCN

binding [2] | Binder | other results
 | centromere protein B (CENP-B), endogenous in HeLa cells (protein, UniProt P07199 1-599) MGPKRRQLTFREKSRIIQEVEENPDLRKGEIARRFNIPPSTLSTILKNKRAILASERKYGVASTCRKTNKLSPYDKLEGLLIAWFQQIRAAGLPVKGIILKEKALRIAEELGMDDFTASNGWLDRFRRRHGVVSCSGVARARARNAAPRTPAAPASPAAVPSEGSGGSTTGWRAREEQPPSVAEGYASQDVFSATETSLWYDFLPDQAAGLCGGDGRPRQATQRLSVLLCANADGSEKLPPLVAGKSAKPRAGQAGLPCDYTANSKGGVTTQALAKYLKALDTRMAAESRRVLLLAGRLAAQSLDTSGLRHVQLAFFPPGTVHPLERGVVQQVKGHYRQAMLLKAMAALEGQDPSGLQLGLTEALHFVAAAWQAVEPSDIAACFREAGFGGGPNATITTSLKSEGEEEEEEEEEEEEEEGEGEEEEEEGEEEEEEGGEGEELGEEEEVEEEGDVDSDEEEEEDEESSSEGLEAEDWAQGVVEAGGSFGAYGAQEEAQCPTLHFLEGGEDSDSDSEEEDDEEEDDEDEDDDDDEEDGDEVPVPSFGEAMAYFAMVKRYLTSFPIDDRVQSHILHLEHDLVHVTRKNHARQAGVRGLGHQS | binding [1]: binds
binds | FAM172A, endogenous in HeLa cells (protein, UniProt Q8WUF8 19-416) QIQQGGPDEKEKTTALKDLLSRIDLDELMKKDEPPLDFPDTLEGFEYAFNEKGQLRHIKTGEPFVFNYREDLHRWNQKRYEALGEIITKYVYELLEKDCNLKKVSIPVDATESEPKSFIFMSEDALTNPQKLMVLIHGSGVVRAGQWARRLIINEDLDSGTQIPFIKRAVAEGYGVIVLNPNENYIEVEKPKIHVQSSSDSSDEPAEKRERKDKVSKETKKRRDFYEKYRNPQREKEMMQLYIRENGSPEEHAIYVWDHFIAQAAAENVFFVAHSYGGLAFVELMIQREADVKNKVTAVALTDSVHNVWHQEAGKTIREWMRENCCNWVSSSEPLDTSVESMLPDCPRVSAGTDRHELTSWKSFPSIFKFFTEASEAKTSSLKPAVTRRSHRIKHEEL | 
 | HA-tagged full-length (FL) ZXDA, transfected in HEK293T cells (protein, UniProt P98168 1-799) MEIPKLLPARGTLQGGGGGGIPAGGGRVHRGPDSPAGQVPTRRLLLPRGPQDGGPGRRREEASTASRGPGPSLFAPRPHQPSGGGDDFFLVLLDPVGGDVETAGSGQAAGPVLREEAKAGPGLQGDESGANPAGCSAQGPHCLSAVPTPAPISAPGPAAAFAGTVTIHNQDLLLRFENGVLTLATPPPHAWEPGAAPAQQPRCLIAPQAGFPQAAHPGDCPELRSDLLLAEPAEPAPAPAPQEEAEGLAAALGPRGLLGSGPGVVLYLCPEALCGQTFAKKHQLKMHLLTHSSSQGQRPFKCPLGGCGWTFTTSYKLKRHLQSHDKLRPFGCPAEGCGKSFTTVYNLKAHMKGHEQENSFKCEVCEESFPTQAKLGAHQRSHFEPERPYQCAFSGCKKTFITVSALFSHNRAHFREQELFSCSFPGCSKQYDKACRLKIHLRSHTGERPFLCDFDGCGWNFTSMSKLLRHKRKHDDDRRFMCPVEGCGKSFTRAEHLKGHSITHLGTKPFVCPVAGCCARFSARSSLYIHSKKHLQDVDTWKSRCPISSCNKLFTSKHSMKTHMVKRHKVGQDLLAQLEAANSLTPSSELTSQRQNDLSDAEIVSLFSDVPDSTSAALLDTALVNSGILTIDVASVSSTLAGHLPANNNNSVGQAVDPPSLMATSDPPQSLDTSLFFGTAATGFQQSSLNMDEVSSVSVGPLGSLDSLAMKNSSPEPQALTPSSKLTVDTDTLTPSSTLCENSVSELLTPAKAEWSVHPNSDFFGQEGETQFGFPNAAGNHGSQKERNLITVTGSSFLV | binding [3]: binds
binds | SUGT1, endogenous in HeLa cells (protein, UniProt Q9Y2Z0 1-365) MAAAAAGTATSQRFFQSFSDALIDEDPQAALEELTKALEQKPDDAQYYCQRAYCHILLGNYCVAVADAKKSLELNPNNSTAMLRKGICEYHEKNYAAALETFTEGQKLDIETGFHRVGQAGLQLLTSSDPPALDSQSAGITGADANFSVWIKRCQEAQNGSESEVWTHQSKIKYDWYQTESQVVITLMIKNVQKNDVNVEFSEKELSALVKLPSGEDYNLKLELLHPIIPEQSTFKVLSTKIEIKLKKPEAVRWEKLEGQGDVPTPKQFVADVKNLYPSSSPYTRNWDKLVGEIKEEEKNEKLEGDAALNRLFQQIYSDGSDEVKRAMNKSFMESGGTVLSTNWSDVGKRKVEINPPDDMEWKKY | 
binds | DEDD2, endogenous in HeLa cells (protein, UniProt Q8WXF8 1-326) MALSGSTPAPCWEEDECLDYYGMLSLHRMFEVVGGQLTECELELLAFLLDEAPGAAGGLARARSGLELLLELERRGQCDESNLRLLGQLLRVLARHDLLPHLARKRRRPVSPERYSYGTSSSSKRTEGSCRRRRQSSSSANSQQGQWETGSPPTKRQRRSRGRPSGGARRRRRGAPAAPQQQSEPARPSSEGKVTCDIRLRVRAEYCEHGPALEQGVASRRPQALARQLDVFGQATAVLRSRDLGSVVCDIKFSELSYLDAFWGDYLSGALLQALRGVFLTEALREAVGREAVRLLVSVDEADYEAGRRRLLLMEEEGGRRPTEAS | 
